# Assay results from PMC12040169 (PLOS Biology, 2025).
# Some of the results follow.
# Test system: T1, CTL2-GFP (C. trachomatis L2/434/Bu, GFP-expressing)
# T1 construct: L2/434/Bu, GFP-expressing
# Design: species or system HeLa; Intracellular C. trachomatis growth in HeLa cells, bulk GFP fluorescence relative to DMSO
# Conditions: bulk GFP, single well; 28.5 h, 10 µM; inhibitor
row,Compound,% of control remaining [%]
1,CN(C)S(=O)(=O)c1ccc(Cl)c(C(=O)Nc2ccc(C(=O)O)cc2)c1 [CBK265728],195.736
2,COc1ccc(/N=c2/cc(C)[nH]c3ncnn23)cc1 [CBK287893],114.939
3,c1ccc(Oc2ccc(Nc3cccc(-c4ccc5ccccc5c4)n3)cc2)cc1 [CBK037636],122.595
4,CN(CCN1CCCCC1)C(=O)c1c2c(nn1C)CCCC2 [CBK281905],106.723
5,COc1ccc(-c2noc([C@@H]3C[C@H](NS(=O)(=O)Cc4ccccc4)CN3C)n2)cc1 [CBK288863],117.165
6,OCc1cc(Cl)c(Cl)c(CO)c1O [CBK269397],109.317
7,COc1ccccc1-c1cnc(N)c(N[C@@H](CO)C(C)C)n1 [CBK063749],196.805
8,COc1ccc(CN2CCCN(C(=O)c3ccc(C#N)cc3)CC2)cc1 [CBK305273],106.305
9,CN(C)CCC(c1ccccc1)n1cncc1-c1cnn(C)c1 (stereo not shown) [CBK281742],154.865
10,Cc1ccc2nc(N3CCCC(O)C3)c(CN3CCC(F)CC3)cc2c1 (stereo not shown) [CBK307016],131.46
11,O=C(NCc1nnc(-c2cccs2)o1)c1ccccc1-c1ccccc1 [CBK286293],85.8831
12,Cc1ccc(C(=O)NCCN2CCOCC2)c(NCCCn2ccnc2)n1 [CBK076371],144.356
13,CCC(=O)N1CCC(NC(=O)c2cnc(-c3ccncc3)s2)C1 (stereo not shown) [CBK305550],97.126
14,CCC(Oc1ccc(C)cc1)C(=O)Nc1ccccc1C(=O)N1CCOCC1 (stereo not shown) [CBK270132],159.119
15,O=C(O)C(Cc1ccccc1)n1cnnn1 (stereo not shown) [CBK021162],90.0157
16,O=C(O)C1(NCc2ccccc2Cl)CCCCC1 [CBK287269],164.172
17,O=C(Cn1cnc2c(c1=O)CCCC2)Nc1ccc(Cl)c(Cl)c1 [CBK304655],88.1348
18,N#Cc1ccc(NC(=O)CC2(CC(=O)O)CCCC2)cc1 [CBK286979],154.202
19,O=C(Nc1cccc(N2CCCC2)c1)c1cc(C2CC2)on1 [CBK283139],118.635
20,COc1ccccc1N1CC(C(=O)Nc2ccc(C(=O)O)cc2)CC1=O (stereo not shown) [CBK269606],142.475
21,O=C(O)CN1C(=O)C(=Cc2ccc(-c3ccc(Br)cc3)o2)SC1=S [CBK296075],155.135
22,O=C1CSC(c2cccnc2)N1CCc1ccccn1 (stereo not shown) [CBK017292],95.9522
23,COc1cc(OC)cc(-c2[nH][nH]c(=O)c2CCN)c1 [CBK288414],102.74
24,CC(C)(C)NC(=O)CNS(=O)(=O)c1ccccc1 [CBK265807],100
25,Cc1cc(OCC(O)CN2CCN(Cc3ccc4c(c3)OCO4)CC2)cc(C)c1Cl (stereo not shown) [CBK074374],123.367
26,COc1ccc(S(=O)(=O)NCCSCc2cccc(C)c2)cc1Cl [CBK268477],98.4683
27,CCn1cc(CN2CCCN(C(=O)c3cc(C)on3)CC2)cn1 [CBK306145],130.012

row,Compound,% of control remaining [%]
1,Cc1nn(C)c2ncc(S(=O)(=O)NCC(N)c3ccc(F)cc3F)cc12 (stereo not shown) [CBK304303C],126.148
2,C=CCOc1ccccc1CNc1nc[nH]n1 [CBK267234],97.7988
3,COc1cccc(C(=O)Nc2nn(Cc3ccc(C(F)(F)F)cc3)c3ccccc23)c1 [CBK048273],88.2334
4,COc1cc(C=CC(=O)O)cc(S(=O)(=O)Nc2ccccc2C(=O)NCCc2ccccc2)c1OC [CBK297487],134.28
5,Cc1nc(N)sc1-c1nnc(Nc2ccccc2)s1 [CBK267353],140.291
6,CC1CCN(Cc2ccc(-c3ccc(CNC(=O)c4ccc5c(c4)OC(F)(F)O5)s3)cc2)CC1 [CBK166113],98.3917
7,CC1Cc2cc(CC(=O)N(C)CC(F)(F)F)ccc2O1 (stereo not shown) [CBK283067],83.2864
8,COc1ccc(/C=C(\C)C(=O)Nc2ccc(N3CCNCC3)c3ccccc23)cc1OC [CBK038913T],120.774
9,CCN(CC(O)COc1cc(C)c(Cl)c(C)c1)S(=O)(=O)O (stereo not shown) [CBK026767N],107.655
10,O=C(c1ccccc1)c1cc[n+](CCC[n+]2ccc(C(=O)c3ccccc3)cc2)cc1 [CBK278270B],100.961
11,Cc1cc(O)n2nc(CC(=O)NCCCn3c(C)cccc3=O)nc2n1 [CBK306532],128.115
12,CCN(CC)CCOC1CCc2ccccc2CC1 [CBK016730C],163.208
13,CC(C)N(C(=O)c1ccccc1-c1cnc2cccnn12)C(C)C [CBK306900],129.54
14,Cc1[nH]c2cc(C(=O)NCCn3nccc3C)ccc2c1C [CBK283313],134.272
15,CCn1ncc2c1CCCC2NC1CCN(c2ccccc2)C1=O (stereo not shown) [CBK305144],116.869
16,CCN1CCC2(CCC1=O)CN(Cc1noc(CC(C)C)n1)CCN2C (stereo not shown) [CBK306971],70.5489
17,COc1cc(C(C)=O)ccc1OCCCN1CCC(O)(C(=O)c2ccc(F)cc2)CC1 [CBK025271C],100
18,CCNC(=O)N1CC2(CCN(CCc3cccc4ccccc34)CC2)c2ccccc21 [CBK136965],97.0924
19,Cc1cc(NC(=O)C2CCN(CC3CCCO3)CC2)no1 (stereo not shown) [CBK305544],123.422
20,O=C1CC[C@@H](NCc2ccsc2)[C@H](c2cc(F)cc(F)c2)N1 [CBK282910],104.371
21,COCCN(C)C(=O)c1cn2cc(-c3cc(C)oc3C)n(C)c(=O)c2n1 [CBK306605],145.864
22,O=C(Cc1c[nH]c2ccccc12)N1Cc2ccccc2C1 [CBK200321],98.8356
23,Cc1ccc(S(=O)(=O)NC(C)(C)CSc2nnc(N)s2)cc1 [CBK266350],133.079
24,Cn1c(CN2CCN(c3ccc(C#N)cc3)CC2)nnc1[C@H]1C[C@@H](N)C1 [CBK306985],94.8681
25,O=C(C1CC1)N1CC(n2nc(-c3cccs3)ccc2=O)C1 [CBK284650],101.76
26,CSCCN1CCC(C(=O)c2ccc(F)cc2)CC1 [CBK149145],130.463
27,CN1C(=O)/C(=C2\SC(=S)N(C(CCC(=O)O)C(=O)O)C2=O)c2ccccc21 (stereo not shown) [CBK261010],114.106

# Structures shown so far with a halogen (16):
row,Compound,% of control remaining [%]
1,CN(C)S(=O)(=O)c1ccc(Cl)c(C(=O)Nc2ccc(C(=O)O)cc2)c1 [CBK265728],195.736
6,OCc1cc(Cl)c(Cl)c(CO)c1O [CBK269397],109.317
10,Cc1ccc2nc(N3CCCC(O)C3)c(CN3CCC(F)CC3)cc2c1 (stereo not shown) [CBK307016],131.46
16,O=C(O)C1(NCc2ccccc2Cl)CCCCC1 [CBK287269],164.172
17,O=C(Cn1cnc2c(c1=O)CCCC2)Nc1ccc(Cl)c(Cl)c1 [CBK304655],88.1348
21,O=C(O)CN1C(=O)C(=Cc2ccc(-c3ccc(Br)cc3)o2)SC1=S [CBK296075],155.135
25,Cc1cc(OCC(O)CN2CCN(Cc3ccc4c(c3)OCO4)CC2)cc(C)c1Cl (stereo not shown) [CBK074374],123.367
26,COc1ccc(S(=O)(=O)NCCSCc2cccc(C)c2)cc1Cl [CBK268477],98.4683
1,Cc1nn(C)c2ncc(S(=O)(=O)NCC(N)c3ccc(F)cc3F)cc12 (stereo not shown) [CBK304303C],126.148
3,COc1cccc(C(=O)Nc2nn(Cc3ccc(C(F)(F)F)cc3)c3ccccc23)c1 [CBK048273],88.2334
6,CC1CCN(Cc2ccc(-c3ccc(CNC(=O)c4ccc5c(c4)OC(F)(F)O5)s3)cc2)CC1 [CBK166113],98.3917
7,CC1Cc2cc(CC(=O)N(C)CC(F)(F)F)ccc2O1 (stereo not shown) [CBK283067],83.2864
9,CCN(CC(O)COc1cc(C)c(Cl)c(C)c1)S(=O)(=O)O (stereo not shown) [CBK026767N],107.655
17,COc1cc(C(C)=O)ccc1OCCCN1CCC(O)(C(=O)c2ccc(F)cc2)CC1 [CBK025271C],100
20,O=C1CC[C@@H](NCc2ccsc2)[C@H](c2cc(F)cc(F)c2)N1 [CBK282910],104.371
26,CSCCN1CCC(C(=O)c2ccc(F)cc2)CC1 [CBK149145],130.463

# (cont.)

row,Compound,% of control remaining [%]
1,O=C(c1cnc2cc(Cl)ccc2c1O)N1CCN(c2ncccn2)CC1 [CBK107358],159.06
2,O=C1CC2(CCN(C(=O)C3CCOC3)CC2)Oc2c(Br)cc(Br)cc21 (stereo not shown) [CBK156512],116.781
3,CCOc1ccc(Nc2nc(-c3ccc(C)cc3C)c(CC(=O)O)s2)cc1 [CBK264187],91.633
4,Cc1cc(C)c(OCC(=O)Nc2cccc(-c3nc4cc(C(C)C)ccc4o3)c2)c([N+](=O)[O-])c1 [CBK264680],104.565
5,COC(=O)[C@H]1CN(C(=O)Cc2ccccn2)C[C@@H]1c1ccc(F)cc1 [CBK283519],140.908
6,CC(C)[C@@H](CO)Nc1nc(-c2cccnc2)cn2ccnc12 [CBK037539],106.502
7,CN(C)CCC1CCCCN1C(=O)[C@@H]1C[C@@H]2C=C[C@H]1C2 (stereo partly shown) [CBK282054],123.739
8,O=C(Nc1c(F)cc(F)cc1OC1CCNCC1)c1ccccn1 [CBK050274T],101.35
9,COc1ccc(NC(=O)CSc2cnn[nH]2)c(OC)c1 [CBK269969],137.076
10,CC(C)(C)OC(=O)N[C@@H](Cc1ccccc1)CN(Cc1ccccc1)Cc1ccc(S(=O)(=O)N2CCOC2=O)cc1 [CBK028952],91.8682
11,OC1(C(F)(F)F)C=C(c2cccs2)ON1 (stereo not shown) [CBK006243],139.068
12,O=C(Nc1ccc(S(=O)(=O)Nc2cncs2)cc1)c1ccc(-c2cccc(C(F)(F)F)c2)o1 [CBK266625],43.4731
13,CC(=O)N1Cc2cc(C)ccc2OC2(CCN(CC3CC3)CC2)C1 [CBK285021],119.039
14,O=C(CSC1=NCCS1)Nc1ccc(Cl)cn1 [CBK057917],155.869
15,CC(C)C(C(=O)Nc1ccc(S(=O)(=O)N2CCOCC2)cc1)N1C(=O)c2ccccc2C1=O (stereo not shown) [CBK265607],113.078
16,CN1CCN(C(=O)c2ccc(-c3cnc4[nH]c(=O)n(Cc5ccncc5)c4n3)cc2)CC1 [CBK064679],229.224
17,CCOCCCC(=O)N1CCN(Cc2nnc3n2CCCCC3)CC1 [CBK305298],118.899
18,CCN1CCN(C(=O)COc2cccnc2)CC1 [CBK200378],142.695
19,CC(C)c1ccc(NC(=O)CSc2n[nH]c(=O)n2-c2ccccc2)cc1 [CBK299826],159.708
20,Clc1ccccc1-c1nccnc1NCc1ccncc1 [CBK037472],164.188
21,COC1CCC(C(=O)Nc2cnc(-c3ccc(F)c(Cl)c3)c(-c3ccc(C(C)=O)s3)n2)CC1 (stereo not shown) [CBK036718],169.217
22,CCn1c2cc(C)sc2c2cnn(CC(=O)N(C)C)c(=O)c21 [CBK284173],112.218
23,O=C(Cn1nc2n(c1=O)CCCCC2)NCc1ccccc1Cl [CBK304642],136.698
24,COC(=O)c1cc(-c2c[nH]c3ccccc23)n[nH]1 [CBK241010],110.981
25,COc1ccc(CC(=O)N2CCC(c3cc4cnccc4[nH]3)CC2)cc1 [CBK283451],125.43

# A second format for part of the listing above:
row | Compound | % of control remaining [%]
26 | COc1ccc(S(=O)(=O)NCCSCc2cccc(C)c2)cc1Cl [CBK268477] | 98.4683
27 | CCn1cc(CN2CCCN(C(=O)c3cc(C)on3)CC2)cn1 [CBK306145] | 130.012
